# Measurements published in paper PMC12611763.
# Amino acid sequences for entries named in this document (tags omitted). Residues count along the entry.
# UniProt Q9CZ52, residues 31-562: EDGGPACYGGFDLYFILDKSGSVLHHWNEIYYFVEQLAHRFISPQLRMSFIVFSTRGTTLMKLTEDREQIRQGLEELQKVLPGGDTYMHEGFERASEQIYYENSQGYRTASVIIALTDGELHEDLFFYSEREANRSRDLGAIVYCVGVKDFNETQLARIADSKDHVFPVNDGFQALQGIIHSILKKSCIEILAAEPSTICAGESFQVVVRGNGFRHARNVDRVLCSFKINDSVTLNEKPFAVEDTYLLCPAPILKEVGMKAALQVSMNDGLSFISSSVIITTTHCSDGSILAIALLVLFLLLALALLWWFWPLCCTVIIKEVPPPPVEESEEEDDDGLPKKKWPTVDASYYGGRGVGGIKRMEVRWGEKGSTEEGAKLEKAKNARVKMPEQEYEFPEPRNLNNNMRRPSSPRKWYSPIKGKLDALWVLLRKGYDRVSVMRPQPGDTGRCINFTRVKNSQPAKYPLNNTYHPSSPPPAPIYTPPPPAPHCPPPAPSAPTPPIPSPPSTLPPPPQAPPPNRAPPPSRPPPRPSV
# These are yes or no findings as the source states them, for the method shown. In cells and extracts the contact can be indirect. Some entries that bind do so weakly or less than the wild type.
# Target: T1, TGFβ receptor 1 (TGFBR1) (mouse (endogenous in primary cardiac fibroblasts)) (UniProt Q64729)
# T1 sequence: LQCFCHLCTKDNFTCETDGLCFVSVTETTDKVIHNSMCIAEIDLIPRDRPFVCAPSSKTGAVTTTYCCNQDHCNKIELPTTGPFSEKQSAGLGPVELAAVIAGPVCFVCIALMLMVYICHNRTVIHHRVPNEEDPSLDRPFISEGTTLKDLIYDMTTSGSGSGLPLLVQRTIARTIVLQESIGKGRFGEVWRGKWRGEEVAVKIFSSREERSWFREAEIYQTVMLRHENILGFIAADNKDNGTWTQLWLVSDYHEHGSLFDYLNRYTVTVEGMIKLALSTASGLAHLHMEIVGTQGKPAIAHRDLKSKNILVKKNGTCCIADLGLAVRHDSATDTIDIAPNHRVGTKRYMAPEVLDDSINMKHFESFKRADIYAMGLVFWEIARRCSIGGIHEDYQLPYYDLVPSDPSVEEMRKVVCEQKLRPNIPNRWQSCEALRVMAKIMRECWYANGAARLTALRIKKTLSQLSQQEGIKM
# Test: co-IP; endogenous proteins in cardiac fibroblast lysate (25 mM Tris pH 7.5, 75 mM NaCl, 0.5% Triton X-100, 10% glycerol); 1 mg protein, 1 ug antibody overnight, Dynabeads Protein G, 5 washes; immunoblot; non-specific IgG as control; both directions
substance,measurement,value
ANTXR1 (anthrax toxin receptor 1) (from UniProt Q9CZ52 31-562),binding,binds
